In publication PMC11934774 one finds binding data, which are given here for eleven molecules.

Sequences of proteins named here, by UniProt entry; tags and fusion partners are left off. A change or cut given only in a name is not applied to a line headed by its entry. A line that says so, or that is headed by a name, gives the form on record, which may keep a tag or linker.
C-X-C motif chemokine receptor 3 (CXCR3) (human (endogenous in HRMECs)) (P49682, form named): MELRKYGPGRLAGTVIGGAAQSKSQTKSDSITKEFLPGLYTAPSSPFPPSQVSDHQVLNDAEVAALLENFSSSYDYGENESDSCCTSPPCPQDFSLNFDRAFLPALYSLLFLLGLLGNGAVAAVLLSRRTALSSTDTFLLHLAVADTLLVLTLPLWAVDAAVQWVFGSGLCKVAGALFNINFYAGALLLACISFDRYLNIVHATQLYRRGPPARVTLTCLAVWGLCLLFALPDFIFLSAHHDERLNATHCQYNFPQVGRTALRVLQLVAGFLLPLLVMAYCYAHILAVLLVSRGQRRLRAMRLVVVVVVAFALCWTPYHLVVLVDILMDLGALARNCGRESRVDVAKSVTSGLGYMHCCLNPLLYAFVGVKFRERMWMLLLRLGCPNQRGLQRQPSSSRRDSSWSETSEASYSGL
UniProt P04792: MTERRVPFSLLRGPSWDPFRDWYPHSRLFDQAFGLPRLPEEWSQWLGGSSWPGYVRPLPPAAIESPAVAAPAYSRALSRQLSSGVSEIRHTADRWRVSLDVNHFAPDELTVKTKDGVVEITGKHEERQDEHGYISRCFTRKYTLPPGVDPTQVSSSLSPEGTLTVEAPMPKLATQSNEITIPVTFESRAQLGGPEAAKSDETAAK
UniProt Q15717: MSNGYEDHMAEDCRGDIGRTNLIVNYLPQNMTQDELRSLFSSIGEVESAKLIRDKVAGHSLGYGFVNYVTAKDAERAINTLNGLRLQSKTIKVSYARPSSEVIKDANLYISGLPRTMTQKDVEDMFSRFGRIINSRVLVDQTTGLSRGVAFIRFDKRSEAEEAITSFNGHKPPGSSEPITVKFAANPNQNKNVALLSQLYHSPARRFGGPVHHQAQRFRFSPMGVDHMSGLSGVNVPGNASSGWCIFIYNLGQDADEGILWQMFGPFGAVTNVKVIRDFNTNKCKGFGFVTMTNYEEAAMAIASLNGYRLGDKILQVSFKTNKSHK
UniProt P15090: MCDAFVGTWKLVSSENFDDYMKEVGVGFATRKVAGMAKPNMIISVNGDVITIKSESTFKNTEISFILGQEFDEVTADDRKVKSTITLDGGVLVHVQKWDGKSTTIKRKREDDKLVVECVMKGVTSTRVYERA
UniProt P17174: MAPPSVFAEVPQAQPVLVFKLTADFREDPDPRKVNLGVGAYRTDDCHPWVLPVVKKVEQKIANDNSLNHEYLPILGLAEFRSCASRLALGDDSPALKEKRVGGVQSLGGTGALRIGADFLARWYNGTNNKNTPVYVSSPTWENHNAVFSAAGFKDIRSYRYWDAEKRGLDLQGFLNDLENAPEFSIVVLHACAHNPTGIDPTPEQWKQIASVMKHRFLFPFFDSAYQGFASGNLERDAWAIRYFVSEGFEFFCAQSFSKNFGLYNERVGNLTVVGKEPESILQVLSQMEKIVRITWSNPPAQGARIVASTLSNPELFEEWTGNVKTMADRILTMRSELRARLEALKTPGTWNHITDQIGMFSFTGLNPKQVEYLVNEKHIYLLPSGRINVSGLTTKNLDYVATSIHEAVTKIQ

These are yes or no findings as the source states them, for the method shown. Binding seen in cells or lysates may run through a third protein. Here binding means that the protein was enriched with, or labelled near, the bait; the list need not be complete.

B1: phosphatase 1, regulatory (inhibitor) subunit 13 (PPP1R13L) (protein, UniProt Q8WUF5 1-828)
chain: MDSEAFQSARDFLDMNFQSLAMKHMDLKQMELDTAAAKVDELTKQLESLWSDSPAPPGPQAGPPSRPPRYSSSSIPEPFGSRGSPRKAATDGADTPFGRSESAPTLHPYSPLSPKGRPSSPRTPLYLQPDAYGSLDRATSPRPRAFDGAGSSLGRAPSPRPGPGPLRQQGPPTPFDFLGRAGSPRGSPLAEGPQAFFPERGPSPRPPATAYDAPASAFGSSLLGSGGSAFAPPLRAQDDLTLRRRPPKAWNESDLDVAYEKKPSQTASYERLDVFARPASPSLQLLPWRESSLDGLGGTGKDNLTSATLPRNYKVSPLASDRRSDAGSYRRSLGSAGPSGTLPRSWQPVSRIPMPPSSPQPRGAPRQRPIPLSMIFKLQNAFWEHGASRAMLPGSPLFTRAPPPKLQPQPQPQPQPQSQPQPQLPPQPQTQPQTPTPAPQHPQQTWPPVNEGPPKPPTELEPEPEIEGLLTPVLEAGDVDEGPVARPLSPTRLQPALPPEAQSVPELEEVARVLAEIPRPLKRRGSMEQAPAVALPPTHKKQYQQIISRLFHRHGGPGPGGPEPELSPITEGSEARAGPPAPAPPAPIPPPAPSQSSPPEQPQSMEMRSVLRKAGSPRKARRARLNPLVLLLDAALTGELEVVQQAVKEMNDPSQPNEEGITALHNAICGANYSIVDFLITAGANVNSPDSHGWTPLHCAASCNDTVICMALVQHGAAIFATTLSDGATAFEKCDPYREGYADCATYLADVEQSMGLMNSGAVYALWDYSAEFGDELSFREGESVTVLRRDGPEETDWWWAALHGQEGYVPRNYFGLFPRVKPQRSKV
B2: thioredoxin-1 (TXN) (protein, UniProt P10599-1 1-105)
chain: MVKQIESKTAFQEALDAAGDKLVVVDFSATWCGPCKMIKPFFHSLSEKYSNVIFLEVDVDDCQDVASECEVKCMPTFQFFKKGQKVGEFSGANKEKLEATINELV
B3: Isocitrate Dehydrogenase 2 (IDH2) (protein, UniProt P48735 40-452)
chain: ADKRIKVAKPVVEMDGDEMTRIIWQFIKEKLILPHVDIQLKYFDLGLPNRDQTDDQVTIDSALATQKYSVAVKCATITPDEARVEEFKLKKMWKSPNGTIRNILGGTVFREPIICKNIPRLVPGWTKPITIGRHAHGDQYKATDFVADRAGTFKMVFTPKDGSGVKEWEVYNFPAGGVGMGMYNTDESISGFAHSCFQYAIQKKWPLYMSTKNTILKAYDGRFKDIFQEIFDKHYKTDFDKNKIWYEHRLIDDMVAQVLKSSGGFVWACKNYDGDVQSDILAQGFGSLGLMTSVLVCPDGKTIEAEAAHGTVTRHYREHQKGRPTSTNPIASIFAWTRGLEHRGKLDGNQDLIRFAQMLEKVCVETVESGAMTKDLAGCIHGLSNVKLNEHFLNTTDFLDTIKSNLDRALGRQ
B4: Catalase (CAT) (protein, UniProt P04040 1-527)
chain: MADSRDPASDQMQHWKEQRAAQKADVLTTGAGNPVGDKLNVITVGPRGPLLVQDVVFTDEMAHFDRERIPERVVHAKGAGAFGYFEVTHDITKYSKAKVFEHIGKKTPIAVRFSTVAGESGSADTVRDPRGFAVKFYTEDGNWDLVGNNTPIFFIRDPILFPSFIHSQKRNPQTHLKDPDMVWDFWSLRPESLHQVSFLFSDRGIPDGHRHMNGYGSHTFKLVNANGEAVYCKFHYKTDQGIKNLSVEDAARLSQEDPDYGIRDLFNAIATGKYPSWTFYIQVMTFNQAETFPFNPFDLTKVWPHKDYPLIPVGKLVLNRNPVNYFAEVEQIAFDPSNMPPGIEASPDKMLQGRLFAYPDTHRHRLGPNYLHIPVNCPYRARVANYQRDGPMCMQDNQGGAPNYYPNSFGAPEQQPSALEHSIQYSGEVRRFNTANDDNVTQVRAFYVNVLNEEQRKRLCENIAGHLKDAQIFIQKKAVKNFTEVHPDYGSHIQALLDKYNAEKPKNAIHTFVQSGSHLAAREKANL
B5: Peroxiredoxin-1 (PRDX1) (protein, UniProt Q06830 1-199)
chain: MSSGNAKIGHPAPNFKATAVMPDGQFKDISLSDYKGKYVVFFFYPLDFTFVCPTEIIAFSDRAEEFKKLNCQVIGASVDSHFCHLAWVNTPKKQGGLGPMNIPLVSDPKRTIAQDYGVLKADEGISFRGLFIIDDKGILRQITVNDLPVGRSVDETLRLVQAFQFTDKHGEVCPAGWKPGSDTIKPDVQKSKEYFSKQK
B6: Arachidonate 12-Lipoxygenase, 12R Type (ALOX12B) (protein, UniProt O75342 1-701)
chain: MATYKVRVATGTDLLSGTRDSISLTIVGTQGESHKQLLNHFGRDFATGAVGQYTVQCPQDLGELIIIRLHKERYAFFPKDPWYCNYVQICAPNGRIYHFPAYQWMDGYETLALREATGKTTADDSLPVLLEHRKEEIRAKQDFYHWRVFLPGLPSYVHIPSYRPPVRRHRNPNRPEWNGYIPGFPILINFKATKFLNLNLRYSFLKTASFFVRLGPMALAFKVRGLLDCKHSWKRLKDIRKIFPGKKSVVSEYVAEHWAEDTFFGYQYLNGVNPGLIRRCTRIPDKFPVTDDMVAPFLGEGTCLQAELEKGNIYLADYRIMEGIPTVELSGRKQHHCAPLCLLHFGPEGKMMPIAIQLSQTPGPDCPIFLPSDSEWDWLLAKTWVRYAEFYSHEAIAHLLETHLIAEAFCLALLRNLPMCHPLYKLLIPHTRYTVQINSIGRAVLLNEGGLSAKGMSLGVEGFAGVMVRALSELTYDSLYLPNDFVERGVQDLPGYYYRDDSLAVWNALEKYVTEIITYYYPSDAAVEGDPELQSWVQEIFKECLLGRESSGFPRCLRTVPELIRYVTIVIYTCSAKHAAVNTGQMEFTAWMPNFPASMRNPPIQTKGLTTLETFMDTLPDVKTTCITLLVLWTLSREPDDRRPLGHFPDIHFVEEAPRRSIEAFRQRLNQISHDIRQRNKCLPIPYYYLDPVLIENSISI

For the assay, the target named is C-X-C motif chemokine receptor 3 (CXCR3) (human (endogenous in HRMECs)) (UniProt P49682). In words: affinity purification with mass spectrometry; CoIP with an anti-CXCR3 antibody from NP-40 lysate of normal HRMECs, control IgG in parallel, overnight at 4 °C, agarose beads, washed with precooled PBS; tryptic digest, LC-MS/MS (Orbitrap Exploris 480), Homo sapiens database.
Turning to “Valosin containing protein (VCP) (from UniProt P55072 1-806)”, the binding result was “binds”.

In the case of “heat shock protein beta-1 (HSPB1) (from UniProt P04792 1-205)”, the binding entry is “binds”.

As to “ELAV Like RNA Binding Protein 1 (ELAVL1) (from UniProt Q15717 1-326)”, the binding result was “binds”.

On to “Fatty acid binding protein 4 (FABP4) (from UniProt P15090 1-132)”, for which the binding result is recorded as “binds”.

For the molecule “Glutamic-Oxaloacetic Transaminase (GOT1) (from UniProt P17174 1-413)”, the binding result is “binds”.

Take B1: the binding entry is “binds”.

For B2, the binding entry is recorded as “binds”.

With B3, the binding result is given as “binds”.

Regarding B4, the binding entry is on record as “binds”.

In the case of B5, the binding entry is listed as “binds”.

Regarding B6, the binding entry was “binds”.
